The text below walks through data of article PMC8834437, “Physical Interaction between Embryonic Stem Cell-Expressed Ras (ERas) and Arginase-1 in Quiescent Hepatic Stellate Cells” (Cells, 2022).

Experiment [1] has as its target T1, hsERas FL overexpressed in HEK293 cells (EYFP fusion) (human) (UniProt Q7Z444).
T1 sequence: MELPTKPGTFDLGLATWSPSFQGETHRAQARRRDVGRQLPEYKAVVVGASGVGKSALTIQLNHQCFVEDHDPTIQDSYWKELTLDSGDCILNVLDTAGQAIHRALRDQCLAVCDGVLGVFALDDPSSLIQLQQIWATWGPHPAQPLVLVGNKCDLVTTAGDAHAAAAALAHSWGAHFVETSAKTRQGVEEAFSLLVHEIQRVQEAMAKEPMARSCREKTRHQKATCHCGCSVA
The experiment can be described thus: co-IP; ERas constructs overexpressed in HEK293 cells, GFP-coupled nanobeads, 1 h at 4 °C, immunoblot with monoclonal antibody against ARG1.

The target of experiment [2] is T2, hsERas Nex overexpressed in HEK293 cells (EYFP fusion) (human) (UniProt Q7Z444).
T2 sequence: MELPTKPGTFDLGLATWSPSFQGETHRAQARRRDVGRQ
The experiment is described as above.

In experiment [3] the target is T3, hsERas ΔC overexpressed in HEK293 cells (EYFP fusion) (human) (UniProt Q7Z444).
T3 sequence: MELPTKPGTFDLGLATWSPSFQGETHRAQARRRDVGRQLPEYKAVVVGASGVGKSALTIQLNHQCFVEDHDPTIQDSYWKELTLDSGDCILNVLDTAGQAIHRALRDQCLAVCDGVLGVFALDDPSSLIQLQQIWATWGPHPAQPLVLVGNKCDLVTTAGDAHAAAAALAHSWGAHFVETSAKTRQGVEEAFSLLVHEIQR
Described as above.

The target in experiment [4] is T4, rnERas FL overexpressed in HEK293 cells (EYFP fusion) (rat) (UniProt D3ZTE4).
T4 sequence: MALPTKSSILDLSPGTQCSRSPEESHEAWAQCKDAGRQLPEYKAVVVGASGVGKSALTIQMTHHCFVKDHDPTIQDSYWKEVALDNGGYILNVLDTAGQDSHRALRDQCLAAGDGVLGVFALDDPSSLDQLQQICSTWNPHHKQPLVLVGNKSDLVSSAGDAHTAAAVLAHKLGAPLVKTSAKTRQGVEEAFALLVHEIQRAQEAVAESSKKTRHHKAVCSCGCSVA
The experiment is described as above.

Experiment [5] deals with T5, rnERas Nex overexpressed in HEK293 cells (EYFP fusion) (rat) (UniProt D3ZTE4).
T5 sequence: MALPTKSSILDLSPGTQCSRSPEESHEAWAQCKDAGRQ
The experiment is described as above.

The target of experiment [6] is T6, rnERas ΔC overexpressed in HEK293 cells (EYFP fusion) (rat) (UniProt D3ZTE4).
T6 sequence: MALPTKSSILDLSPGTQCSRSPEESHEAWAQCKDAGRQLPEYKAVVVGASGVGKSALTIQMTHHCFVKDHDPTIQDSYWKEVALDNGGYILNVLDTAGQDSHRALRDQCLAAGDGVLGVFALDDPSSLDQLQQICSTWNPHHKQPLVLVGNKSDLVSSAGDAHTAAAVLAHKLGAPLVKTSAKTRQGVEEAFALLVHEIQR
The experiment is described as above.

The target in experiment [7] is T7, N-terminally truncated ERas (ΔN; aa 39-233), overexpressed (human) (UniProt Q7Z444).
T7 sequence: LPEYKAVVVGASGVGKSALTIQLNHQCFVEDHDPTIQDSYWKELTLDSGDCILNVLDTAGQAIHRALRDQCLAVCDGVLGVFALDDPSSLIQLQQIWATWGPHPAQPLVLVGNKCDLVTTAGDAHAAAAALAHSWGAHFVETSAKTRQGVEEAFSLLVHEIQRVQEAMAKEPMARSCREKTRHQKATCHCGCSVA
The experiment can be described thus: pull-down; purified ARG1 with overexpressed ERas ΔN, ERas WT or EYFP (Supplementary Figure S4A); only the binder purified.

Experiment [8] has as its target T1, hsERas FL overexpressed in HEK293 cells (EYFP fusion) (human). The description is as above.
The target of experiment [9] is T8, ERas, endogenous in freshly isolated rat hepatic stellate cells (d0) (rat (endogenous in HSCs)) (UniProt D3ZTE4).
T8 sequence: T4 sequence
The experiment can be described thus: co-IP; ERas antibody or IgG control, Protein G beads, total cell lysates of freshly isolated HSCs (d0), 4 °C.

The target of experiment [10] is T9, GST-rnNex (rat ERas N-terminal extension, aa 1-38) (rat) (UniProt D3ZTE4).
T9 sequence: T5 sequence
The experiment can be described thus: pull-down; purified GST-rnNex on GSH beads, freshly isolated HSC (d0) lysates, immunoblot with anti-ARG1 antibody; only the target purified.

No constants are given. Whether binding was seen depends on the method and setting. Binding seen in cells or lysates may run through a third protein. Some binding calls cover weakened binding; strength is not graded here. For some of these results: Tags and fused reporters may be left off the sequences shown.

B1: ARG1 in HEK293 cell lysate (enzyme, UniProt P05089 1-322)
chain: MSAKSRTIGIIGAPFSKGQPRGGVEEGPTVLRKAGLLEKLKEQECDVKDYGDLPFADIPNDSPFQIVKNPRSVGKASEQLAGKVAEVKKNGRISLVLGGDHSLAIGSISGHARVHPDLGVIWVDAHTDINTPLTTTSGNLHGQPVSFLLKELKGKIPDVPGFSWVTPCISAKDIVYIGLRDVDPGEHYILKTLGIKYFSMTEVDRLGIGKVMEETLSYLLGRKKRPIHLSFDVDGLDPSFTPATGTPVVGGLTYREGLYITEEIYKTGLLSGLDIMEVNPSLGKTPEEVTRTVNTAVAITLACFGLAREGNHKPIDYLNPPK
On to B1, for which the binding entry in [1], in experiment [2], in experiment [3], in [4], in experiment [5] and in experiment [6] was “binds” throughout.

B2: purified arginase 1 (ARG1; aa 1-322) (enzyme, UniProt P05089 1-322)
chain: B1 chain
For the molecule B2, the binding result in experiment [7] is recorded as “binds weakly”; in experiment [8] it was “binds”.

B3: ARG1, endogenous in freshly isolated rat hepatic stellate cells (d0) (enzyme, UniProt P07824 1-323)
chain: MSSKPKPIEIIGAPFSKGQPRGGVEKGPAALRKAGLVEKLKETEYNVRDHGDLAFVDVPNDSPFQIVKNPRSVGKANEQLAAVVAETQKNGTISVVLGGDHSMAIGSISGHARVHPDLCVIWVDAHTDINTPLTTSSGNLHGQPVAFLLKELKGKFPDVPGFSWVTPCISAKDIVYIGLRDVDPGEHYIIKTLGIKYFSMTEVDKLGIGKVMEETFSYLLGRKKRPIHLSFDVDGLDPVFTPATGTPVVGGLSYREGLYITEEIYKTGLLSGLDIMEVNPTLGKTPEEVTRTVNTAVALTLSCFGTKREGNHKPETDYLKPPK
With B3, the binding entry in [9] and in [10] was “binds” in each case.
